Results from PubChem BioAssay AID2685 (National Center for Advancing Translational Sciences (NCATS), 2010).
This is one part of the list. Shown are side measurements of this screen, not its main read-out; they come without a call. The list favours compounds with an active or inconclusive main result. Words in brackets tell the shape of the fitted curve; partial curves, single points and poor fits give uncertain potencies.

Assay: qHTS Assay for Lipid Storage Modulators in Drosophila S3 Cells;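 as to cell number change: cells counted by Cell Tracker Red CMTPX staining in the red channel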
Details: BODIPY lipid droplet fluorescence, 18-24 h; for cell number change: measured here: cell count max response, cells fed with added oleic acid
How it was run: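 Drosophila S3 cells got compounds at several concentrations plus oleic acid (400 uM solution). Laser-scanning cytometry with 488 nm excitation read lipid droplets at 500-530 nm and cells at 575-640 nm. Percent activity was relative to 20 uM Triacsin C.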

[1] = measured here: cell number channel AC50, cells fed with added oleic acid
[2] = measured here: lipid fluorescence (Fed channel) AC50, cells fed with added oleic acid

SMILES | cell number change [%] | AC50 [1] | AC50 [2]
Cc1ccc(NC(=O)c2cc(N3C(=O)C=CC3=O)ccc2N2CCOCC2)cc1Cl | -36.1 | 9.2 µM [falling, partial curve] | 29.1 µM [falling, partial curve, poor fit]
O=C(CSc1nnc(-c2cccs2)n1CC1CCCO1)c1cc2ccccc2o1 (stereo unspecified) | 4.58 | – | 25.9 µM [rising, single point]
COc1cccc(OC)c1C(=O)Nc1ccccc1N1CCCCC1 | -32.8 | 16.4 µM [falling, single point] | 16.4 µM [falling, single point]
COC(=O)c1cccc(C23CC4(C2)[C@H](CN(Cc2cccnc2)[C@@H]4c2ccccc2)C3c2ccccc2)c1 (stereo partly specified) | -34.9 | 32.6 µM [falling, single point] | 4.61 µM [falling, single point]
CC1CCCCN1CC(=O)Nc1cc(S(=O)(=O)N2CCOCC2)ccc1N1CCCC1 (stereo unspecified) | -81.7 | 9.2 µM [falling, partial curve, poor fit] | –
O=C(Cn1c(=O)cnc2ccccc21)NCC(=O)Nc1ccc(F)c(F)c1 | – | – | 3.26 µM [falling, partial curve, poor fit]
COc1ccc(C(=O)NCc2nnc(SCC(=O)c3ccccc3)n2C)cc1 | 118 | 32.6 µM [rising, partial curve] | 6.51 µM [rising, single point]
CC(C)(C)NC(=O)c1oc2ccccc2c1COc1ccccc1 | 8.6 | – | 20.6 µM [falling, single point]
CC(C)CC(=O)Nc1nnc(CCc2ccccc2)s1 | 8.42 | – | –
COc1ccc(C2(c3ccc(OC)cc3)NC(=O)N(CC(=O)Nc3ccc(OC(F)F)cc3)C2=O)cc1 | -3.98 | – | 2.31 µM [rising, single point]
CC(C)CNC(=O)c1ccc(Cl)c(NC(=O)COc2ccccc2)c1 | 10.5 | – | –
O=[N+]([O-])c1cc(S(=O)(=O)Nc2cccc(Cl)c2)ccc1N/N=C/c1ccc(N2CCOCC2)cc1 | -32.9 | 4.61 µM [falling, partial curve] | 0.366 µM [falling, full curve]
COC(=O)C1C(=O)C2=C(CC1C)NC(C)=C(C(=O)OC(C)C)C2c1ccc(C)o1 (stereo unspecified) | – | – | 6.51 µM [rising, single point]
CC(C)OC(=O)c1c(NC(=O)Cn2cnc([N+](=O)[O-])n2)sc2c1CCCC2 | 127 | 0.103 µM [rising, full curve, poor fit] | 0.092 µM [rising, full curve, poor fit]
O=C(NCc1ccccc1)c1nnc(CS(=O)(=O)c2ccccc2)o1 | 28.8 | – | 0.58 µM [falling, single point]
COc1cccc(Nc2ncnc3c2cnn3C)c1 | -8.41 | – | –
O=C(Cn1nnc(-c2ccccc2NC(=O)c2ccco2)n1)NC1CCCCC1 | 9.44 | – | –
CCOc1ccc(OCCSc2nc3ccccc3[nH]2)cc1 | -22.5 | – | 20.6 µM [falling, single point]
COC(=O)c1ccc(CN2C(=O)NC(CC(C)C)C2=O)cc1 (stereo unspecified) | 1.24 | 0.0651 µM [rising, full curve, poor fit] | 0.092 µM [rising, full curve, poor fit]
CS(=O)(=O)N1CCCC(C(=O)NCc2ccccc2Cl)C1 (stereo unspecified) | -160 | 29.1 µM [falling, partial curve] | 0.206 µM [falling, full curve, poor fit]

Three structures out of the list, sorted by count of non-hydrogen atoms, smallest number first.
SMILES | cell number change [%] | AC50 [1] | AC50 [2]
CCOc1ccc(OCCSc2nc3ccccc3[nH]2)cc1 | -22.5 | – | 20.6 µM [falling, single point]
CC(C)(C)NC(=O)c1oc2ccccc2c1COc1ccccc1 | 8.6 | – | 20.6 µM [falling, single point]
O=C(CSc1nnc(-c2cccs2)n1CC1CCCO1)c1cc2ccccc2o1 (stereo unspecified) | 4.58 | – | 25.9 µM [rising, single point]

The results go on:

SMILES | cell number change [%] | AC50 [1] | AC50 [2]
Cc1nc2ccccc2cc1OCc1ccccc1 | -24.3 | – | 20.6 µM [falling, single point]
Cc1cc(C)nc(/N=C2\NC(=O)CC(C(=O)O)N2c2ccc(Cl)cc2Cl)n1 (stereo unspecified) | -8 | 4.61 µM [falling, single point] | –
Cc1ccc(C2=NN(C(=O)CN3C(=O)c4ccccc4S3(=O)=O)C(c3ccco3)C2)cc1 (stereo unspecified) | 16.7 | – | 16.4 µM [rising, single point]
O=C(Cn1cnc2cc(Cl)ccc2c1=O)Nc1ccc2c(c1)OCO2 | -4.9 | – | 6.51 µM [rising, single point]
O=C(CCCOc1ccccc1)N1CCCCC1 | 1.19 | – | –
CCCOc1ccc(CC(=O)NCCc2ccccc2)cc1OC | 20.5 | – | –
CCC1(C)CC(=O)N(c2ccc(F)c(Cl)c2)C(=O)C1 | 1.39 | – | 20.6 µM [falling, partial curve, poor fit]
O=S(=O)(NCc1ccco1)c1ccc2ccccc2c1 | 32.1 | – | –
COc1ccc(-n2c(=O)c(CCC(=O)N3CCC(C)CC3)nc3ccccc32)cc1 | 9.94 | – | 1.16 µM [falling, full curve, poor fit]
COc1ccc(OC)c(NC(=O)CSc2nnc(N)s2)c1 | 7.41 | – | 2.31 µM [rising, full curve]
CC(C)C(OC(=O)c1cccs1)C(=O)NCc1ccco1 (stereo unspecified) | -19.2 | – | 2.31 µM [falling, single point]
COc1ccc(-c2ccnc3c(Br)c(C)nn23)cc1 | -15.3 | – | 29.1 µM [falling, single point]
Cc1ccc(C(C)C)cc1OCC(=O)Nc1ccc(N2CCCCC2)cc1 | 57 | 29.1 µM [rising, single point] | –
O=C(CSc1ncn[nH]1)c1ccc2c(c1)OCCO2 | -128 | 20.6 µM [falling, partial curve, poor fit] | –
Cc1ccc(COC(=O)c2ccc3ccccc3n2)cc1 | 8.26 | – | 6.51 µM [rising, single point]
Cc1nc(NCCCn2ccnc2)c2oc3ccccc3c2n1 | -8.42 | – | –
CCOc1ccc(NC(=O)c2ccccc2CO)cc1 | 9.69 | – | 0.206 µM [rising, partial curve, poor fit]
Cn1c(N)c(C(=O)c2ccc(Cl)cc2)c(=O)n(C)c1=O | 14.4 | – | 11.6 µM [rising, partial curve, poor fit]
Cc1ccc(C(=O)Nc2cccc([N+](=O)[O-])c2)cc1S(=O)(=O)Nc1ccc(NC(=O)c2ccccc2)cc1 | 17.7 | – | 0.146 µM [rising, full curve, poor fit]
